Results are given in words; binding and its absence hold for the method and conditions named. Binding seen in cells or lysates may run through a third protein. Some binding calls cover weakened binding; strength is not graded here.
Assays:
[1] = target: GFP-Rab7V162M (Canis lupus familiaris) (UniProt P18067); assay: co-IP; PC12 cells transfected with GFP-Rab7 (wild type or CMT2B mutant), stimulated with NGF for 60 min; lysis in 0.5% NP40, 25 mM Tris-HCl, 100 mM NaCl, pH 7.5; immunoprecipitated with rabbit pAb against GFP and protein A Sepharose at 4°C, immunoblotted for TrkA, reprobed for GFP
[2] = target: GFP-Rab7L129F (Canis lupus familiaris) (UniProt P18067); assay: as above
[3] = target: GFP-Rab7K157N (Canis lupus familiaris) (UniProt P18067); assay: as above
[4] = target: GFP-Rab7N161T (Canis lupus familiaris) (UniProt P18067); assay: as above
[5] = target: GFP-tagged wild-type Rab7 (Canis lupus familiaris) (UniProt P18067); assay: as above
[6] = target: endogenous Rab7 (rat (endogenous in PC12)) (UniProt P09527); assay: co-IP; PC12 cells stimulated with NGF (200 ng/ml) for 15-60 min; lysates immunoprecipitated with a pAb against Rab7, immunoblotted for TrkA, reprobed for Rab7; maximum interaction 1 h after stimulation

Protein sequences, listed by entry. Tags and fused reporters are not part of them. Lines headed by an entry give the natural chain unless they say otherwise; changes in a name come on top. Residues count along the entry.
UniProt P18067: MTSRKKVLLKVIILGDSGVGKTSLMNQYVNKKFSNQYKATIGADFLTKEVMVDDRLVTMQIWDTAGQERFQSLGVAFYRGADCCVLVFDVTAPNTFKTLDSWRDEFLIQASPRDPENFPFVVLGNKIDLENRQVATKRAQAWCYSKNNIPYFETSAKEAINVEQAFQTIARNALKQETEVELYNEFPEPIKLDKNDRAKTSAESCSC
UniProt P09527: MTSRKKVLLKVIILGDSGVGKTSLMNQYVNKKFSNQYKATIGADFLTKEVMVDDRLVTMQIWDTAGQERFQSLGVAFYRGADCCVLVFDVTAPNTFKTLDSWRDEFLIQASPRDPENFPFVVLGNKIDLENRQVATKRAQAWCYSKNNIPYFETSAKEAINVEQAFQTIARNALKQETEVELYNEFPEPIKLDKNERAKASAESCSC
UniProt P35739, residues 33-799: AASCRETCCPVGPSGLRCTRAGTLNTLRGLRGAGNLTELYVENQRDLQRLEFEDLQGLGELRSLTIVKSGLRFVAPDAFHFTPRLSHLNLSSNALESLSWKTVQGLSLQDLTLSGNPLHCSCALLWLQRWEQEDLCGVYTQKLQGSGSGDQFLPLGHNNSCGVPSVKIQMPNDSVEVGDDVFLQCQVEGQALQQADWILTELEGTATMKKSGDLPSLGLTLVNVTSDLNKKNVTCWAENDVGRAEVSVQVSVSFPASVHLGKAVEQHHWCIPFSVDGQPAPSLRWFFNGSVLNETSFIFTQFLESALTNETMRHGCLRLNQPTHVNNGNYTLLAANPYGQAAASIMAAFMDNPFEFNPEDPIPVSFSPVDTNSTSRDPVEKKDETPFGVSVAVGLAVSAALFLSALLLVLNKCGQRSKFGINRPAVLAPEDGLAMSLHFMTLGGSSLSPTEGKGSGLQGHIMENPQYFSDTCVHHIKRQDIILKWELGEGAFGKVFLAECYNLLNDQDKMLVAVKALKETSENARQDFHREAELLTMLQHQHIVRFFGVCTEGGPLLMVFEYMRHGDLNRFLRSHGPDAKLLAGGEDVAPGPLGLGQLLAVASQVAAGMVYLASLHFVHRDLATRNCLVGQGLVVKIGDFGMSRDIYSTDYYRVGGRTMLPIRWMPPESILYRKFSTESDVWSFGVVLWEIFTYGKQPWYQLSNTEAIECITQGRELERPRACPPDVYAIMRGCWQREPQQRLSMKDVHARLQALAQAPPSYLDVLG

Measured: binding

nerve growth factor receptor TrkA (from UniProt P35739 33-799)
binds: all assays above
